According to PubChem BioAssay AID720576 (National Center for Advancing Translational Sciences (NCATS), 2013):
The shares of active, inactive and inconclusive entries below differ from those in the screen. Potencies of inconclusive entries are doubtful fits and often do not repeat. Calls of active or inactive are those of the source. Calls follow the shape of the dose curve; as a rule, active = well fitted inhibition curve with a large enough effect; inconclusive = small, poorly fitted or top-dose-only effect; inactive = no such curve, though single readings can be large or run the other way.

Test: qHTS Assay for Inhibitors of Hepatitis C Virus (HCV): Cytotoxicity Counterscreen for Cherry-picked Compounds
Details: HCV host cell line cytotoxicity counterscreen; series mostly up to 41.8 µM
Method in brief: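 Cytotoxicity in the Huh hepatoma line is assessed after 44 h compound treatment, with luminescence from CellTiter-Glo reagent recorded following 15 min at room temperature.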
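Also: 44 h compound exposure; nearly all actives have a fitted effect of over 55% in size.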
Potency is read from the fitted curve at half-maximal effect.

SMILES	Potency
CSc1ccc(CN2CCN(Cc3ccc([N+](=O)[O-])cc3)CC2)cc1	active: 7.05 µM
COc1ccc(NC(=S)N2CCCC(c3nc4ccc(C)cc4[nH]3)C2)cc1 (stereo unspecified)	inactive
COc1nc(Nc2nc3ccccc3c(=O)[nH]2)nc2ccc(C)cc12	inconclusive: 8.87 µM [inhibitor, full curve]
CCC(C(=O)OCC(=O)Nc1ccc(C(=O)Nc2ccc(OC)cc2)cc1)c1ccccc1 (stereo unspecified)	inconclusive: 22.3 µM [inhibitor, single point]
Cn1nnnc1Sc1ncnc2scc(-c3ccc(C#N)cc3)c12	active: 25 µM
CC(C)(C)C1CCc2c(sc3ncn(N)c(=N)c23)C1 (stereo unspecified)	inconclusive: 28 µM [inhibitor, partial curve, poor fit]
COc1ccc(CN2CCC(N(CCc3ccccc3)Cc3ccccc3)CC2)c(OC)c1	inconclusive: 31.5 µM [inhibitor, single point]
Cc1nc2nc(C)n(CCN3CCOCC3)c(=O)c2c(-c2cccc([N+](=O)[O-])c2)c1C(=O)CCCCCCCCCCN1CCC(c2ccccc2)(c2ccccc2)CC1	inconclusive: 31.5 µM [inhibitor, single point]
O=c1c(-c2nnc(SCc3ccc(Cl)cc3)o2)cccn1Cc1ccccc1	inconclusive: 4.99 µM [inhibitor, partial curve, poor fit]
Cc1cccc(Nc2nc(-c3c(C)nc4ccccn34)cs2)c1	active: 25 µM
COc1ccc2c(c1)sc(N)[n+]2Cc1cc(C)cc2cccnc12	inconclusive: 28 µM [inhibitor, partial curve, poor fit]

In the list so far, two have a thiophene ring, fused or not:
SMILES	Potency
Cn1nnnc1Sc1ncnc2scc(-c3ccc(C#N)cc3)c12	active: 25 µM
CC(C)(C)C1CCc2c(sc3ncn(N)c(=N)c23)C1 (stereo unspecified)	inconclusive: 28 µM [inhibitor, partial curve, poor fit]
